# Test results reported in PubChem BioAssay AID602195 (The Scripps Research Institute Molecular Screening Center, 2012).
# Sequences of proteins named here, by UniProt entry; tags and fusion partners are left off.
# UniProt P32245, whole entry, looked up: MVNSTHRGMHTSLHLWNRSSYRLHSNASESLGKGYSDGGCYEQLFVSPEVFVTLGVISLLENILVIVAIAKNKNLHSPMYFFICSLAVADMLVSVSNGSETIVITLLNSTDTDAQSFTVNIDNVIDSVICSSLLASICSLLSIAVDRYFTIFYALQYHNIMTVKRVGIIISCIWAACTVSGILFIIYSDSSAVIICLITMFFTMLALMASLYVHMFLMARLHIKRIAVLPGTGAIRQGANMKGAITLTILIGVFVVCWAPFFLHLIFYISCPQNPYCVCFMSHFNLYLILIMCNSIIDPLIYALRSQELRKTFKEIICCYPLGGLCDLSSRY
# Hit rate of the full screen: of about 1,600 compounds, about 430 (27%) were called active. No stated cut-off is given here; in the data, active means inhibition above about 29%; inactive means the rest. The entries are a selection whose mix differs from that of the whole data set.
# Target: Melanocortin receptor 4 (Homo sapiens) (UniProt P32245)
# Experiment: blockers of MC4R cAMP signaling – cell-based, TR-FRET, confirmation (AID 602195);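 further: 0% = agonist stimulated wells alone and 100% = agonist stimulated wells plus saturating reference antagonist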
# Settings: MC4R-expressing cells, MTII-stimulated cAMP, at 6.5 µM, active compounds read high
row,SMILES,inhibition
1,Cc1cccc(N2C(=O)NC(=O)/C(=C\c3cnn(-c4ccccc4)c3)C2=O)c1,inactive: 10.2%
